The supplement of paper PMC8728848
Some of the results follow.

Legend:
Assay in all cases: glycan array binding signal (z-score within array); higher = stronger binding
Conditions in all cases: glycan notation: IUPAC condensed, linker removed
[1] = biological target: Gal(b1-3)GlcNAc(b1-2)Man(a1-3)[Gal(b1-3)GlcNAc(b1-2)Man(a1-6)]Man(b1-4)GlcNAc(b1-4)[Fuc(a1-6)]GlcNAc
How it was run: (§1)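 Glycan array data came from 3228 arrays in the Consortium for Functional Glycomics database, and only arrays with an available protein sequence were kept. Glycan names were put into IUPAC-condensed notation, and columns mapping to the same glycan were averaged. The binding signal is a within-array Z-score, averaged across arrays of one protein sequence run at different concentrations or buffers and across linkers. A negative Z-score can be read as non-binding.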

[2] = biological target: Gal(b1-3)GlcNAc(b1-2)Man(a1-3)[GlcNAc(b1-4)][Gal(b1-3)GlcNAc(b1-2)Man(a1-6)]Man(b1-4)GlcNAc(b1-4)GlcNAc
How it was run: as §1

[3] = biological target: Gal(b1-3)GlcNAc(b1-2)[Gal(b1-3)GlcNAc(b1-6)]Man(a1-6)[Gal(b1-3)GlcNAc(b1-2)Man(a1-3)]Man(b1-4)GlcNAc(b1-4)GlcNAc
How it was run: as §1

[4] = biological target: Gal(b1-3)GlcNAc(b1-3)Gal(b1-3)GlcNAc
How it was run: as §1

[5] = biological target: Gal(b1-3)GlcNAc(b1-3)Gal(b1-4)Glc
How it was run: as §1

[6] = biological target: Gal(b1-3)GlcNAc(b1-3)Gal(b1-4)GlcNAc
How it was run: as §1

[7] = biological target: Gal(b1-3)GlcNAc(b1-3)Gal(b1-4)GlcNAc(b1-2)Man(a1-3)[Gal(b1-3)GlcNAc(b1-3)Gal(b1-4)GlcNAc(b1-2)Man(a1-6)]Man(b1-4)GlcNAc(b1-4)GlcNAc
How it was run: as §1

[8] = biological target: Gal(b1-3)GlcNAc(b1-3)Gal(b1-4)GlcNAc(b1-2)[Gal(b1-3)GlcNAc(b1-3)Gal(b1-4)GlcNAc(b1-6)]Man(a1-6)[Gal(b1-3)GlcNAc(b1-3)Gal(b1-4)GlcNAc(b1-2)Man(a1-3)]Man(b1-4)GlcNAc(b1-4)[Fuc(a1-6)]GlcNAc
How it was run: as §1

[9] = biological target: Gal(b1-3)GlcNAc(b1-3)Gal(b1-4)GlcNAc(b1-3)Gal(b1-4)GlcNAc(b1-2)[Gal(b1-3)GlcNAc(b1-3)Gal(b1-4)GlcNAc(b1-3)Gal(b1-4)GlcNAc(b1-6)]Man(a1-6)[Gal(b1-3)GlcNAc(b1-3)Gal(b1-4)GlcNAc(b1-3)Gal(b1-4)GlcNAc(b1-2)Man(a1-3)]Man(b1-4)GlcNAc(b1-4)[Fuc(a1-6)]GlcNAc
How it was run: as §1

[10] = biological target: Gal(b1-3)GlcNAc(b1-3)Gal(b1-4)GlcNAc(b1-6)[Gal(b1-3)GlcNAc(b1-3)]Gal(b1-4)Glc
How it was run: as §1

[11] = biological target: Gal(b1-3)GlcNAc(b1-3)Gal(b1-4)[Fuc(a1-3)]GlcNAc
How it was run: as §1

[12] = biological target: Gal(b1-3)GlcNAc(b1-3)Gal(b1-4)[Fuc(a1-3)]GlcNAc(b1-6)[Gal(b1-3)GlcNAc(b1-3)]Gal(b1-4)Glc
How it was run: as §1

[13] = biological target: Gal(b1-3)GlcNAc(b1-3)GalNAc
How it was run: as §1

[14] = biological target: Gal(b1-3)GlcNAc(b1-6)Gal(b1-4)GlcNAc
How it was run: as §1

[15] = biological target: Gal(b1-3)GlcNAc(b1-6)GalNAc
How it was run: as §1

[16] = biological target: Gal(b1-3)GlcNAc(b1-6)[Gal(b1-3)]GalNAc
How it was run: as §1

[17] = biological target: Gal(b1-3)GlcNAc6S
How it was run: as §1

[18] = biological target: Gal(b1-3)[Fuc(a1-4)]GlcNAc
How it was run: as §1

[19] = biological target: Gal(b1-3)[Fuc(a1-4)]GlcNAc(b1-2)Man
How it was run: as §1

[20] = biological target: Gal(b1-3)[Fuc(a1-4)]GlcNAc(b1-2)Man(a1-3)[Gal(b1-3)[Fuc(a1-4)]GlcNAc(b1-2)Man(a1-6)]Man(b1-4)GlcNAc(b1-4)[Fuc(a1-6)]GlcNAc
How it was run: as §1

[21] = biological target: Gal(b1-3)[Fuc(a1-4)]GlcNAc(b1-3)Gal(b1-3)[Fuc(a1-4)]GlcNAc
How it was run: as §1

[22] = biological target: Gal(b1-3)[Fuc(a1-4)]GlcNAc(b1-3)Gal(b1-4)[Fuc(a1-3)]GlcNAc
How it was run: as §1

[23] = biological target: Gal(b1-3)[Fuc(a1-4)]GlcNAc(b1-6)GalNAc
How it was run: as §1

[24] = biological target: Gal(b1-3)[GlcNAc(b1-6)]GalNAc
How it was run: as §1

[25] = biological target: Gal(b1-3)[Neu5Ac(a2-6)]GalNAc
How it was run: as §1

[26] = biological target: Gal(b1-3)[Neu5Ac(a2-6)]GlcNAc(b1-4)Gal(b1-4)Glc
How it was run: as §1

[27] = biological target: Gal(b1-3)[Neu5Ac(b2-6)]GalNAc
How it was run: as §1

[28] = biological target: Gal(b1-4)Gal
How it was run: as §1

[29] = biological target: Gal(b1-4)GalNAc(a1-3)[Fuc(a1-2)]Gal(b1-4)GlcNAc
How it was run: as §1

[30] = biological target: Gal(b1-4)GalNAc(b1-3)[Fuc(a1-2)]Gal(b1-4)GlcNAc
How it was run: as §1

[31] = biological target: Gal(b1-4)Glc
How it was run: as §1

[32] = biological target: Gal(b1-4)Glc6S
How it was run: as §1

[33] = biological target: Gal(b1-4)GlcNAc
How it was run: as §1

[34] = biological target: Gal(b1-4)GlcNAc(a1-6)Gal(b1-4)GlcNAc
How it was run: as §1

[35] = biological target: Gal(b1-4)GlcNAc(b1-2)Man
How it was run: as §1

[36] = biological target: Gal(b1-4)GlcNAc(b1-2)Man(a1-3)Man(b1-4)GlcNAc(b1-4)GlcNAc
How it was run: as §1

[37] = biological target: Gal(b1-4)GlcNAc(b1-2)Man(a1-3)[Gal(b1-4)GlcNAc(b1-2)Man(a1-6)]Man(b1-4)GlcNAc(b1-4)GlcNAc
How it was run: as §1

B1: SspB C123 (Streptococcus gordonii), Q54186 (protein)
chain: MAHFHYSSLLAQPQINKEIKNEDGVDIDRTLVAKQSIGKFELKTEALTAGRPKTTSFVLVDPLPTGYKFDLDATKAASTGFDTTYDEASHTVTFKATDETLATYNADLTKPVETLHPTVVGRVLNDGATYTNNFTLTVNDAYGIKSNVVRVTTPGKPNDPDNPNNNYIKPTKVNKNKEGLNIDGKEVLAGSTNYYELTWDLDQYKGDKSSKEAIQNGFYYVDDYPEEALDVRPDLVKVADEKGNQVSGVSVQQYDSLEAAPKKVQDLLKKANITVKGAFQLFSADNPEEFYKQYVSTGTSLVITDPMTVKSEFGKTGGKYENKAYQIDFGNGYATEVVVNNVPKITPKKDVTVSLDPTSENLDGQTVQLYQTFNYRLIGGFIPQNHSEELEDYSFVDDYDQAGDQYTGNYKTFSSLNLTMKDGSVIKAGTDLTSQTTAETDATNGIVTVRFKEDFLQKISLDSPFQAETYLQMRRIAIGTFENTYVNTVNKVAYASAAALEHHHHHH
glycan array binding signal (z-score) [1]: 1.37
glycan array binding signal (z-score) [2]: 0.308
glycan array binding signal (z-score) [3]: 0.411
glycan array binding signal (z-score) [4]: -0.569
glycan array binding signal (z-score) [5]: 0.516
glycan array binding signal (z-score) [6]: -0.047
glycan array binding signal (z-score) [7]: 1.85
glycan array binding signal (z-score) [8]: 0.355
glycan array binding signal (z-score) [9]: 1.44
glycan array binding signal (z-score) [10]: -1.72
glycan array binding signal (z-score) [11]: -1.43
glycan array binding signal (z-score) [12]: -0.979
glycan array binding signal (z-score) [13]: 0.084
glycan array binding signal (z-score) [14]: -0.303
glycan array binding signal (z-score) [15]: -0.435
glycan array binding signal (z-score) [16]: -0.374
glycan array binding signal (z-score) [17]: -1.15
glycan array binding signal (z-score) [18]: -0.989
glycan array binding signal (z-score) [19]: 0.056
glycan array binding signal (z-score) [20]: 0.824
glycan array binding signal (z-score) [21]: -1.39
glycan array binding signal (z-score) [22]: 0.768
glycan array binding signal (z-score) [23]: 2.16
glycan array binding signal (z-score) [24]: -0.709
glycan array binding signal (z-score) [25]: 0.134
glycan array binding signal (z-score) [26]: -0.434
glycan array binding signal (z-score) [27]: 0.509
glycan array binding signal (z-score) [28]: 1.04
glycan array binding signal (z-score) [29]: -1.16
glycan array binding signal (z-score) [30]: 0.688
glycan array binding signal (z-score) [31]: 0.597
glycan array binding signal (z-score) [32]: 0.313
glycan array binding signal (z-score) [33]: 0.473
glycan array binding signal (z-score) [34]: -0.498
glycan array binding signal (z-score) [35]: -0.183
glycan array binding signal (z-score) [36]: 0.377
glycan array binding signal (z-score) [37]: -0.017
